Reference: article PMC10199097, “Molecular mechanism of hyperactivation conferred by a truncation of TRPA1” (Nature Communications, 2023)
These are yes or no findings as the source states them, for the method shown. Binding seen in cells or lysates may run through a third protein. A yes stands for co-enrichment or nearness to the bait. Other partners may have been found.

Protein sequences, listed by entry. Tags and fused reporters are not part of them. Lines headed by an entry give the natural chain unless they say otherwise; changes in a name come on top.
UniProt O75762: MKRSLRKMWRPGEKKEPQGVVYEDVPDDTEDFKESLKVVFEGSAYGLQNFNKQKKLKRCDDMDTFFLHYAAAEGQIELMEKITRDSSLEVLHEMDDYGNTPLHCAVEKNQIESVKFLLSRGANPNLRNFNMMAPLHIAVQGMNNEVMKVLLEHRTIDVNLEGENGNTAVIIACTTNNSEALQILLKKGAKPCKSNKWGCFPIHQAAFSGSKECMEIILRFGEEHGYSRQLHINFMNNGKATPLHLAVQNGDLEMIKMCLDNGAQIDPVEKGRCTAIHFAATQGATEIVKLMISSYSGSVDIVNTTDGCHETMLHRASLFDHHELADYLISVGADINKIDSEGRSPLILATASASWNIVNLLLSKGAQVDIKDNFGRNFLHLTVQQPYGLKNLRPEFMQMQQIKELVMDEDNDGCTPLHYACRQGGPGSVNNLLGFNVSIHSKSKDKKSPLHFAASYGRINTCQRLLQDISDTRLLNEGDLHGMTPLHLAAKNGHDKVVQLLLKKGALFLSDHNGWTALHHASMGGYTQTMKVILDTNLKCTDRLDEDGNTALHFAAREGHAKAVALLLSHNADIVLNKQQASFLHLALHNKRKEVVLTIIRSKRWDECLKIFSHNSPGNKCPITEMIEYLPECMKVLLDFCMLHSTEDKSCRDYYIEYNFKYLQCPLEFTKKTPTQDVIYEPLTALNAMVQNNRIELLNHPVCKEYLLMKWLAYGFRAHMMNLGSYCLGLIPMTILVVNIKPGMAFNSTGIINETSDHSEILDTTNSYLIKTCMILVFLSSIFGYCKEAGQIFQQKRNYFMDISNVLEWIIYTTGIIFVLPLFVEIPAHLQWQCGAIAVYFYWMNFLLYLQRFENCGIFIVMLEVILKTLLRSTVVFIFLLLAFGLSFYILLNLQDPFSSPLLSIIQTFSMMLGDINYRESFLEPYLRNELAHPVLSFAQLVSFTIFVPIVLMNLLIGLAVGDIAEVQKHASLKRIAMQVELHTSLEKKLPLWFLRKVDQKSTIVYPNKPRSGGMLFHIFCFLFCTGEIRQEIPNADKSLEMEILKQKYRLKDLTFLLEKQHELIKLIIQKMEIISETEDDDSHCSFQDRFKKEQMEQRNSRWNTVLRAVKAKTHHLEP

Molecular target: wild type (WT) human TRPA1 (Transient Receptor Potential Ankyrin subtype 1) (human) (UniProt O75762)
Assay: proximity labelling; BioID2-fused protein co-expressed with 3×FLAG-tagged protein in cells; biotinylated proteins precipitated with Neutravidin resin and probed with anti-FLAG antibody

Substance: R919* human TRPA1 mutant (CRAMPT syndrome truncation) (from UniProt O75762 1-918) (domain or fragment)
- binding: binds

Substance: wild type (WT) human TRPA1 (Transient Receptor Potential Ankyrin subtype 1) (from UniProt O75762 1-1119)
- binding: binds
